Assay results published in patent US20100168085A1, “Dopamine and agonists and antagonists thereof for modulation of suppressive activity of CD4+CD25+ regulatory T cells” (YESA RESEARCH AND DEVELOPMENT CO. LTD. at the Weizmann …, priority 2003, published 2010).
At least one structure is not confirmed: it was looked up by name or label, or the drawing left a doubt.

Key:
[1] = test system: suppressive activity of CD4+CD25+ regulatory T cells (Treg) on Teff proliferation; assay: Inhibition assay (co-culturing of Teff with Treg), [3H]-thymidine incorporation; type: cell-based, mouse; settings: added together with dopamine (10^−5 M)
Description: (xvi) Activation of CD4^+CD25^+ regulatory T cells. Purified regulatory T cells (Treg; 0.5×10^6 cells/mL) were activated in RPMI medium supplemented with L-glutamine (2 mM), 2-mercaptoethanol (5×10^−5 M), sodium pyruvate (1 mM), penicillin (100 IU/mL), streptomycin (100 μg/mL), nonessential amino acids (1 mL/100 mL), and autologous serum 2% (vol/vol) in the presence of mrIL-2 (5 ng/mL) and soluble anti-CD3 antibodies (1 ng/mL). Irradiated (2500 rad) splenocytes (1.5×10^6 cells/mL) were added to the culture. Cells were activated for 24 or 96 h. In some of the 96-h experiments, fresh dopamine was added to the culture every 24 h during activation.
(xvii) Inhibition assay (co-culturing of Teff with Treg). Naïve effector T cells (Teff; 50×10^3 cells/well) were co-cultured with decreasing numbers of activated Treg for 72 h in 96-well flat-bottomed plates in the presence of irradiated splenocytes (10^6/mL) supplemented with anti-CD3 antibodies. [^3H]-thymidine (1 μCi) was added for the last 16 h of culture. After the cells were harvested, their [^3H]-thymidine content was analyzed by the use of […].
In this experiment, we examined whether dopamine acts on Treg and alters their suppressive effect on Teff. Suppression of proliferation of Teff, assayed by [^3H]thymidine incorporation, was used as a measure of suppressive effect of Treg (Thornton and Shevach, 1998).
Shevach, 1998, 2000). […]

[2] = test system: adhesion of Treg and Teff to chondroitin sulfate proteoglycans (CSPG); assay: T cell adhesion to CSPG; type: cell-based, mouse; settings: with dopamine
Description: (xiii) T cell adhesion. Adhesion of activated CD4^+CD25^+ and CD4^+CD25^− T cells to CSPG was analyzed as previously described (23). Briefly, flat-bottomed microtiter (96-well) plates were pre-coated with CSPG (1 μg/well, 40 min, 37° C.). ^51Cr-labeled T cells were left untreated or were pre-incubated (30 min, 37° C.) with dopamine or the specified agonist or antagonist (10^−5M). The cells (10^5 cells in 100 μL of RPMI containing 0.1% BSA) were then added to the CSPG-coated wells, incubated (30 min, 37° C.), and washed. Adherent cells were lysed and the resulting supernatants were removed and counted in a γ-counter. Results were expressed as the mean percentage of the total population before adhesion of bound T cells from quadruplicate wells for each experimental group.
One of the main features of T cells is their ability to migrate to tissues in need of rescue or repair [such as diseased or damaged CNS (Hickey, 1999; Flugel et al., 2001). […] We therefore incubated Treg with dopamine for 2 h and then examined their adhesion to chondroitin sulfate proteoglycans (CSPG), extracellular matrix proteins often associated with injured tissues (Jones et al., 2003).
To verify that the effect of dopamine on adhesion of Treg is exerted through the ERK1/2 pathway, we incubated Treg with the ERK1/2 signaling pathway inhibitor PD98059 before carrying out the adhesion assay. […]

| SMILES | Effect on the dopamine effect on Treg suppressive activity [1] | Dopamine effect on Treg adhesion to CSPG in presence of antagonist [2] |
| --- | --- | --- |
| CN1CCc2cc(Cl)c(O)cc2[C@@H](c2ccccc2)C1 [SCH-23390] | prevented the dopamine effect | inhibited |
| CN1CCN(C2=Nc3cc(Cl)ccc3Nc3ccccc32)CC1 [clozapine] | complete blocking of suppression |  |
